# Percent effect of library compounds

From ChEMBL document CHEMBL3988442, “University of Dundee, Small-Polar-MMV Screening Library” (2021).

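Cell assay of Leishmania donovani living inside macrophages; the read-out is not stated. Concentration: 30 µM. Direction is inferred from retests: higher values go with stronger inhibition. Of about 69,000 compounds tested this way, about 1,000 (1.5%) reached 50% or more in at least one test.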

The filed quantity is “Percent Effect” (%). The record does not define 0% and 100%; most values in the screen are far below 50% and negative numbers occur (in some assays of this library far below -100). The compounds are a random part of those screened. Two or more numbers in one place are separate tests of the same structure; such repeats can differ widely.

compound	percent effect
O=C(O)C(F)(F)F.O=C(O)C(F)(F)F.[H][C@@]12CCCO[C@]1([H])[C@H](N(C)Cc1ccco1)CN2CC1CCOCC1	14.66
Cc1occc1C(=O)N1CCC2(CCCN(CC3CCC3)C2=O)C1 (centres undefined)	13.92
CCCNC(=O)Nc1cccc2c1CCN(S(C)(=O)=O)C2	-34.74
CCn1cnnc1CNC(=O)N(C)Cc1cccc(OC(F)F)c1	-22.03
COCCCN1CCCC12CCN(c1ncccn1)CC2.O=C(O)C(F)(F)F	30.29 and 13.59
CCCn1cc(C(=O)NC(C)c2c(C)nn(CC)c2C)c(C)n1 (centres undefined)	0.5808
CCc1cnc(NC(=O)NC2CCN(C3CCCC3)CC2)s1	-2.499
CCn1cnnc1C1CCN(C(=O)c2cnc(C)s2)CC1	26.01
COc1ccc(-n2nc(C3CC3)nc2CCn2cnnn2)cc1	-15.91
CN1CC2(COCCN(C(=O)c3ccco3)C2)OCC1=O (centres undefined)	-27.39
CCN1Cc2ccccc2CC2(CCN(CC3CCC3)CC2)C1=O	21.13
Cc1cc(C)n(-c2ccc(C(=O)N3CCCC3c3cnn(C)c3)cc2)n1 (centres undefined)	1.554
CCc1nccn1C1CCCN(C(=O)c2ccoc2C)C1 (centres undefined)	20.38
CC(C)c1ncc(CN2C[C@@H](CN3CCCCC3)[C@@H](CO)C2)cn1	1.94
Cc1ccccc1-c1cncc(C2CCN(CCO)CC2)n1	-8.453 and 6.549
CCN1CCN(C[C@@H]2CN(c3ncccc3Cl)C[C@@H]2CO)CC1	25.54
Cc1cnn(C2CCCN(C(=O)Cc3cn4ccsc4n3)C2)c1 (centres undefined)	-9.221
O=C(NCC1CC1)C1CN(Cc2ccncc2)Cc2ccnn2C1.O=C(O)C(F)(F)F.O=C(O)C(F)(F)F.O=C(O)C(F)(F)F (centres undefined)	-3.994
Cc1nc(CNC(=O)N(Cc2ccccc2)CC(C)(C)O)oc1C	25.01
CN(Cc1cccs1)C(=O)CS(=O)(=O)Cc1ccc(Cl)c(Cl)c1	-5.583
[H][C@]12C[C@H](C(=O)NCC3CC3)N(C)[C@@]1([H])CN(Cc1ccoc1)C2	-7.771
O=C1CCCN1Cc1ncn2c1CN(S(=O)(=O)c1cccs1)CCC2	15.93
CCN1CCC2(CCC(=O)N2Cc2cccc(C)n2)CC1.O=C(O)C(F)(F)F.O=C(O)C(F)(F)F	28.65
CN(Cc1ccc(F)cc1)CC1(O)CCN(C(=O)c2ccsc2)C1 (centres undefined)	7.284
O=C1c2ccccc2C(=O)N1CC(O)Cn1nc(-c2cccs2)oc1=O (centres undefined)	2.75
CCOCCN1CCN(Cc2cccc(C(=O)N(C)C)c2)CC1	13.41
CCn1cc(NC(=O)c2cc(C)nc(N3CCOCC3)n2)cn1	-38.02
CN1C(=O)[C@H](OC(N)=O)[C@@H](C(=O)Nc2ccccc2)C12CCNCC2	2.117
NC[C@H]1CC[C@H](C(NC(=O)c2cccc(F)c2)c2ccccn2)CC1 (some centres undefined)	30.17
CN(Cc1cncnc1)Cc1cn2c(n1)CN(C1CCOC1)CC2.O=C(O)C(F)(F)F.O=C(O)C(F)(F)F (centres undefined)	-20.46
N#Cc1cc(F)ccc1NCC1CCN(S(=O)(=O)C(F)F)CC1	-34.61
COC(=O)c1ccc(N2CCN(C(=O)c3ccncc3)C(C)C2)cc1 (centres undefined)	49.67
CCN(C(=O)COC)C(c1ccc(Cl)cc1)c1ccccn1 (centres undefined)	-0.3546
CCCc1nnsc1C(=O)NCC1CCN(c2ccccn2)CC1	33.4
Fc1cccc(C2(CNC3CCCNC3)CCOCC2)c1 (centres undefined)	29.06
CNC(=O)C1Cn2ccnc2C2(CCN(CCF)CC2)O1 (centres undefined)	14.44
CN(c1ccc(F)cc1)S(=O)(=O)c1cc2c(c(C(=O)O)c1)OCCO2	17.71
O=C(O)C(F)(F)F.[H][C@]12C[C@@H](C(=O)NCc3cccs3)CO[C@@]1([H])CCN(C1CCCC1)C2	21.96
CC(C)c1cc(C(=O)O)nc2[nH]c(=O)[nH]c(=O)c12	-5.63
CC(O)(CN1CCN(CCO)CC1)c1cccc(C(F)(F)F)c1 (centres undefined)	20.57
CC(C)(C)CN(CCO)C(=O)Nc1cccc(N2CCNC2=O)c1	26.47
CC1Cc2cc(-c3cncn3CC(=O)NC(C)(C)C)ccc2N1C.Cl (centres undefined)	47.76
CCc1ncc(CNC2CC(=O)N(CCc3cccc(Cl)c3)C2)cn1 (centres undefined)	17.94
O=C(c1cncc(N2CCC(O)(CO)CC2)n1)N1CCCC1	26.62
[H][C@@]12CCN(C(=O)c3cc(C)on3)C[C@]1(c1nc(C)no1)CCO2	16.81
Cc1cnn(CCCNC(=O)C2CCCCN2Cc2ccncc2)c1 (centres undefined)	9.023
O=C(O)C(F)(F)F.O=C(O)C(F)(F)F.O=C1NC2(CCN(Cc3cccs3)CC2)CC1c1ccncc1 (centres undefined)	15.69
O=C(O)CCNC(=O)N1CCc2c([nH]c3ccc(Cl)cc23)C1	2.825
CNc1cncc(C2CCCN2Cc2c[nH]cn2)n1 (centres undefined)	8.677
COc1cccc(-n2c(C)cc(C(=O)NC(C)(C)C(N)=O)c2C)c1	1.856
CN(C)c1cc(C2CCCN(C(=O)c3ccc(=O)[nH]n3)C2)ccn1 (centres undefined)	16.21
CC(C)Nc1nc(N2CCCC2)nc2c1CN(C(C)C)CC2	-2.181
CC(C)CCN1CC2(CCN(C(=O)C3(C)CC3)CC2)OC1=O	18.46
COC[C@]1(O)CCN(c2cc(OC)ncn2)CC1(C)C	9.926
O=C(O)C(F)(F)F.[H][C@@]12CCCO[C@]1([H])[C@H](NC(=O)c1cnccn1)CN(C1CCCC1)C2	3.959
CN1C(=O)C2(CCCN(C(=O)c3cccnc3O)C2)c2ccccc21 (centres undefined)	4.492
COCCCNS(=O)(=O)c1cc(Br)sc1C	27.74
O=C(O)C(F)(F)F.O=C(O)C(F)(F)F.O=C1COC2(COCCN(Cc3cccnc3)C2)CN1c1ccccc1 (centres undefined)	-77.97 and 3.247
Cc1ccc(CN2CCn3cc(CNC(=O)c4cnn(C)c4)nc3C2)s1.O=C(O)C(F)(F)F	33.99
CNC(=O)c1ccc(C2CN(C(=O)c3c[nH]nc3C)CCO2)nc1 (centres undefined)	7.471
CCc1cc(C(=O)N2CC[C@@H](c3ccc4ccccc4c3)[C@H](O)C2)[nH]n1	41.37
CC(=O)N1N=C(c2ccccc2)OC1C(=O)NCCc1ccc(C)cc1 (centres undefined)	15.29
Cc1ncc(S(=O)(=O)N(CC(C)C)c2cccc(O)c2)s1	-25.46
CC(C)(C)NC(=O)CN1CCCNCC1	27.59
COCC(=O)N1CCC2(CC1)CC(c1cnn(C)c1)C(=O)N2 (centres undefined)	11.93 and 11.39
CN(CCc1ccccc1)Cc1cnc(C2(C)CCCCO2)nc1 (centres undefined)	7.337
O=C(O)C(F)(F)F.[H][C@@]12CCN(c3ncccn3)C[C@]1([H])[C@H](C(=O)N(C)C)CCO2	-7.589
CN(Cc1cccc(F)c1)C(=O)CN1CCCCC1Cn1cncn1 (centres undefined)	30.25
CCc1ncnc2c1CCN(C(=O)c1ccncc1F)CC2.O=C(O)C(F)(F)F	46.13
COC(=O)c1cc(OC)ccc1NCC(=O)NCC(=O)N1CCCC1	26.73
Cc1ccc2c(c1)OCCN2C(=O)c1ccc(=O)n(C)c1	2.444
COCC(=O)NC[C@H]1CC[C@H](c2ccnc3ncnn32)CC1	23.66
CCc1ncc(C(=O)N2CCCN(C3CCCC3)CC2)cn1	19.09
CC(C)(CO)Nc1c(NCc2ccccn2)c(=O)c1=O	20.3 and 7.774
COc1c(CNCc2cccc(Cn3cncn3)c2)c(C)nn1C	39.27
COc1ccc(-c2noc([C@@H](C)NC(=O)CC(C)C)c2C(=O)O)cc1	4.262
COc1cc(NC2CCCN(c3ncccn3)C2)cc(OC)c1 (centres undefined)	9.434
O=C(O)C(F)(F)F.O=C(c1cnccn1)N1CCCC2(CCN(Cc3ccsc3)CC2)C1	4.253
Cc1ccoc1C(=O)NCCS(=O)(=O)N1CCSCC1	62.05
Cc1nc(N2CCN(c3ccccc3)CC2)c2c(n1)c(C)nn2C	-123.1
CN(C)c1cc(CNC(=O)c2ccc(F)cc2)ccn1	-1.358
CN[C@@H](CO)C(=O)NCc1cc2n(n1)CCCN(C1CCCCC1)C2	3.405
CS(=O)(=O)CCNC(=O)c1cc2ccccc2nc1N1CCCC1	14.72
COCCc1noc(CN2CCC3(CCCO3)CCC2=O)n1 (centres undefined)	-55.63
CNc1cccc(C2CCN(C(=O)c3cccnc3)CC2)n1	7.232 and 11.8
Cc1ccc(CN2CCC3(CC2)COCCN3S(C)(=O)=O)o1.O=C(O)C(F)(F)F	8.732
Cc1noc(C)c1CN1CCOC2(CCCN(c3ncccn3)C2)C1.O=C(O)C(F)(F)F (centres undefined)	20.11
CC(O)(CNC(=O)c1c(F)cccc1Cl)C1CC1 (centres undefined)	-12.46 and 5.122
c1cnnc(N2CCCC2CNCc2noc(C3CC3)n2)c1 (centres undefined)	6.497

Some entries from above, unchanged:

compound	percent effect
CCn1cnnc1CNC(=O)N(C)Cc1cccc(OC(F)F)c1	-22.03
COc1cc(NC2CCCN(c3ncccn3)C2)cc(OC)c1 (centres undefined)	9.434
COC[C@]1(O)CCN(c2cc(OC)ncn2)CC1(C)C	9.926
CC(C)CCN1CC2(CCN(C(=O)C3(C)CC3)CC2)OC1=O	18.46
COC(=O)c1cc(OC)ccc1NCC(=O)NCC(=O)N1CCCC1	26.73
CN(c1ccc(F)cc1)S(=O)(=O)c1cc2c(c(C(=O)O)c1)OCCO2	17.71
O=C(NCC1CC1)C1CN(Cc2ccncc2)Cc2ccnn2C1.O=C(O)C(F)(F)F.O=C(O)C(F)(F)F.O=C(O)C(F)(F)F (centres undefined)	-3.994
CCn1cnnc1C1CCN(C(=O)c2cnc(C)s2)CC1	26.01
Cc1ccc(CN2CCn3cc(CNC(=O)c4cnn(C)c4)nc3C2)s1.O=C(O)C(F)(F)F	33.99
Cc1cnn(CCCNC(=O)C2CCCCN2Cc2ccncc2)c1 (centres undefined)	9.023